Data as given in PubChem BioAssay AID504774 (Drosophila RNAi Screening Center, 2011).
Aim: 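Knock-downs that shift viability of MMS-exposed cells relative to untreated ones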 (primary screen). Cell system: Drosophila Kc167 cells. Reagent: long dsRNA against Drosophila genes, about 0.25 µg dsRNA per well. Duration: about 6 days: 3 days knock-down, then 3 days with or without MMS. Conditions: methyl methanesulphonate 0.004% (w/v) for 3 days after knock-down. Read-out: 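ATP-dependent luminescence as a measure of live cells in MMS-exposed wells, quantile normalised within each plate, with replicate values also given as a mean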. Reading the numbers: mean viability with MMS and viability with MMS: higher = more surviving cells after MMS.
The deposit covers about 23,000 reagents; below is a random part of those with a known target gene and a result. 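Values are quantile-normalised luminescence on an arbitrary scale; higher means more cells surviving MMS.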 A plus sign joins genes that one reagent is predicted to hit.

Target gene | amplicon | mean viability with MMS | viability with MMS, replicate 1 | viability with MMS, replicate 2
Letm1 | DRSC04476 | 3.00e6 | 3.71e6 | 2.91e6
CG6340 | DRSC19987 | 3.56e6 | 4.10e6 | 3.98e6
CG7963 | DRSC16355 | 3.69e6 | 4.23e6 | 4.09e6
Ubc87F | DRSC16513 | 3.42e6 | 3.71e6 | 4.03e6
Cnep1r1 | DRSC20620 | 3.64e6 | 4.10e6 | 4.09e6
Fmo-2 | DRSC04983 | 3.56e6 | 4.03e6 | 4.16e6
Nin | DRSC02007 | 3.52e6 | 3.98e6 | 4.00e6
CG6726 | DRSC16101 | 3.52e6 | 3.95e6 | 4.02e6
CG9662 | DRSC00723 | 3.53e6 | 3.86e6 | 4.15e6
agt | DRSC12611 | 3.61e6 | 4.14e6 | 4.05e6
CR13656 | DRSC13705 | 3.38e6 | 3.75e6 | 3.90e6
CR13656 | DRSC14656 | 3.70e6 | 4.25e6 | 4.12e6
b6 | DRSC18740 | 3.46e6 | 3.86e6 | 3.99e6
Or74a | DRSC11245 | 3.49e6 | 3.97e6 | 3.94e6
CG42570 | DRSC09391 | 3.45e6 | 4.05e6 | 3.82e6
CG12824 | DRSC06173 | 3.78e6 | 4.20e6 | 4.16e6
CG8086 | DRSC03078 | 3.53e6 | 4.25e6 | 3.76e6
CG8086 | DRSC03079 | 3.68e6 | 4.13e6 | 4.20e6
CG15422 | DRSC00436 | 3.58e6 | 3.93e6 | 4.18e6
tra | DRSC11405 | 3.66e6 | 4.18e6 | 4.08e6
CG11668 | DRSC14341 | 3.82e6 | 4.13e6 | 4.48e6
mRpS5 | DRSC21380 | 3.52e6 | 4.06e6 | 3.95e6
CG6962 | DRSC16153 | 3.30e6 | 3.73e6 | 3.75e6
CG13114 | DRSC02212 | 3.70e6 | 4.24e6 | 4.16e6
Ccp84Ag | DRSC12592 | 3.62e6 | 4.07e6 | 4.14e6
Ccp84Ag | DRSC22085 | 3.66e6 | 4.16e6 | 4.06e6
Patr-1 | DRSC14159 | 3.15e6 | 3.63e6 | 3.71e6
CG11381 | DRSC17780 | 3.24e6 | 3.75e6 | 3.71e6
ppk11 | DRSC02737 | 3.46e6 | 3.86e6 | 3.98e6
Ect3 | DRSC15462 | 3.41e6 | 3.82e6 | 3.95e6
Pbp45 | DRSC16509 | 3.55e6 | 3.87e6 | 4.20e6
CG3448 | DRSC10368 | 3.53e6 | 4.02e6 | 3.97e6
Blos3 | DRSC09573 | 1.69e6 | 3.77e6 | 3.92e6
BicD | DRSC02006 | 3.26e6 | 3.63e6 | 3.71e6
CG5768 | DRSC15870 | 3.55e6 | 4.00e6 | 4.05e6
SmydA-2 | DRSC10296 | 3.37e6 | 3.83e6 | 3.75e6
CG5819 | DRSC04520 | 3.36e6 | 3.87e6 | 3.69e6
Dh31 | DRSC02196 | 3.48e6 | 4.05e6 | 3.84e6
CG34457 | DRSC06924 | 3.58e6 | 4.05e6 | 4.06e6
boi | DRSC18425 | 3.60e6 | 4.19e6 | 3.98e6
boi | DRSC18598 | 3.48e6 | 4.01e6 | 3.90e6
RhoGEF64C | DRSC08318 | 3.57e6 | 4.11e6 | 4.00e6
RhoGEF64C | DRSC08319 | 3.36e6 | 3.78e6 | 3.80e6
CG7730 | DRSC10909 | 3.72e6 | 4.21e6 | 4.15e6
AdipoR | DRSC15767 | 3.64e6 | 4.15e6 | 4.08e6
Obp50e | DRSC06434 | 3.53e6 | 3.94e6 | 3.91e6
Nop56 | DRSC14699 | 3.29e6 | 3.88e6 | 3.62e6
CG10553 | DRSC14254 | 3.46e6 | 3.90e6 | 3.91e6
CG6059 | DRSC15958 | 3.58e6 | 4.07e6 | 4.04e6
CG13698 | DRSC10047 | 3.53e6 | 4.06e6 | 3.93e6
CG9497 | DRSC03234 | 3.57e6 | 4.08e6 | 4.01e6
Mur29B | DRSC01018 | 3.87e6 | 4.29e6 | 4.28e6
Mur29B | DRSC02376 | 3.79e6 | 4.24e6 | 4.38e6
Cyp4ac3 | DRSC03304 | 3.72e6 | 4.25e6 | 4.21e6
Nf-YA | DRSC10385 | 3.12e6 | 3.50e6 | 3.55e6
Nf-YA | DRSC23126 | 3.85e6 | 4.42e6 | 4.27e6
Slimp | DRSC13656 | 3.54e6 | 3.96e6 | 4.06e6
Gr98b | DRSC21675 | 3.54e6 | 4.01e6 | 4.03e6
MED23 + CG3700 | DRSC04406 | 3.48e6 | 3.89e6 | 3.98e6
MED23 + CG3700 | DRSC04407 | 3.58e6 | 3.99e6 | 4.15e6
CG11449 | DRSC11662 | 3.39e6 | 3.86e6 | 3.77e6
Pfrx | DRSC18856 | 3.57e6 | 4.02e6 | 4.07e6
Pfrx | DRSC19315 | 3.59e6 | 4.16e6 | 3.94e6
beat-Va | DRSC14192 | 3.36e6 | 3.83e6 | 3.84e6
CG13984 | DRSC02316 | 3.55e6 | 3.91e6 | 4.13e6
beat-Vb | DRSC12940 | 3.70e6 | 3.93e6 | 4.35e6
beat-Vb | DRSC14844 | 1.82e6 | 3.97e6 | 4.01e6
beat-Vb | DRSC14845 | 3.34e6 | 3.80e6 | 3.85e6

Not a retest: 5 of the entries above.
Target gene | amplicon | mean viability with MMS | viability with MMS, replicate 1 | viability with MMS, replicate 2
CG8086 | DRSC03079 | 3.68e6 | 4.13e6 | 4.20e6
CG15422 | DRSC00436 | 3.58e6 | 3.93e6 | 4.18e6
tra | DRSC11405 | 3.66e6 | 4.18e6 | 4.08e6
CG11668 | DRSC14341 | 3.82e6 | 4.13e6 | 4.48e6
mRpS5 | DRSC21380 | 3.52e6 | 4.06e6 | 3.95e6
